The target in experiment [1] is T1, HACD3-Myc (human (cDNA from A549 cells)) (UniProt Q9P035).
T1 sequence: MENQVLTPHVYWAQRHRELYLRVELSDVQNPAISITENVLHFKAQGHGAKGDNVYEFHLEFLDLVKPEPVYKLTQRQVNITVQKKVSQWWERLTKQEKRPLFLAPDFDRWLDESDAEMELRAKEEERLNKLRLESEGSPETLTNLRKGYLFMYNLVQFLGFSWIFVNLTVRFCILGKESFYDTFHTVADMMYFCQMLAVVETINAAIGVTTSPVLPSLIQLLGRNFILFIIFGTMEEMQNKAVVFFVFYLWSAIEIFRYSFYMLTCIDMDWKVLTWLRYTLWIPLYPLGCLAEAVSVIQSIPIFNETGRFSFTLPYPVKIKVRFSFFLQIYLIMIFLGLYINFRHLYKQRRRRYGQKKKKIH
Put plainly: co-IP; HEK293T co-transfected with HACD3-Myc and individual V5-tagged autophagy receptors for 48 h; lysates incubated with mouse anti-Myc mAb and protein G-agarose, 4 °C, 6 h; four washes with 1% NP-40, 50 mmol/L Tris-HCl, 50 mmol/L EDTA, 150 mmol/L NaCl, pH 7.4; blot with anti-V5 and anti-Myc pAb.

Amino acid sequences for entries named in this document (tags omitted).
UniProt P03430: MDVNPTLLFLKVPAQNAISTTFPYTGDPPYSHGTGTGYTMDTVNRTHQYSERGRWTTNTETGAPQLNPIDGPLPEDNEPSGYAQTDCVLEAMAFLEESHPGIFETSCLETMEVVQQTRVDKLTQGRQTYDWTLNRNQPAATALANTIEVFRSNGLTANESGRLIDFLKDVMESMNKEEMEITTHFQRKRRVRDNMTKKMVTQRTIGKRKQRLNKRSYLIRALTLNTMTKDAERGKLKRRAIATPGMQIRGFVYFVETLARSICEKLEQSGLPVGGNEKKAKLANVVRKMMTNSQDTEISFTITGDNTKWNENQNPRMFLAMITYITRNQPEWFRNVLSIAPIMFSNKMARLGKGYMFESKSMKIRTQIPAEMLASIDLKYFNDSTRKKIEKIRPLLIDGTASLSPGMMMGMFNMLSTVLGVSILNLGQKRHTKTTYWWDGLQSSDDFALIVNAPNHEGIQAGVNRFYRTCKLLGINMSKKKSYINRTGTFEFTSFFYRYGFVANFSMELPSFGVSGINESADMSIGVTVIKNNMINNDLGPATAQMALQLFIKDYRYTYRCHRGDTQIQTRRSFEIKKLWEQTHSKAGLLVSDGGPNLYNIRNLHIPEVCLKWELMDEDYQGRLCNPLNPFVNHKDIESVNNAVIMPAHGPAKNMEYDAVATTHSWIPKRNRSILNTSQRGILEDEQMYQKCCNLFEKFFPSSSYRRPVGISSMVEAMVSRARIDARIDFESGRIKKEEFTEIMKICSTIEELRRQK
UniProt Q96CV9: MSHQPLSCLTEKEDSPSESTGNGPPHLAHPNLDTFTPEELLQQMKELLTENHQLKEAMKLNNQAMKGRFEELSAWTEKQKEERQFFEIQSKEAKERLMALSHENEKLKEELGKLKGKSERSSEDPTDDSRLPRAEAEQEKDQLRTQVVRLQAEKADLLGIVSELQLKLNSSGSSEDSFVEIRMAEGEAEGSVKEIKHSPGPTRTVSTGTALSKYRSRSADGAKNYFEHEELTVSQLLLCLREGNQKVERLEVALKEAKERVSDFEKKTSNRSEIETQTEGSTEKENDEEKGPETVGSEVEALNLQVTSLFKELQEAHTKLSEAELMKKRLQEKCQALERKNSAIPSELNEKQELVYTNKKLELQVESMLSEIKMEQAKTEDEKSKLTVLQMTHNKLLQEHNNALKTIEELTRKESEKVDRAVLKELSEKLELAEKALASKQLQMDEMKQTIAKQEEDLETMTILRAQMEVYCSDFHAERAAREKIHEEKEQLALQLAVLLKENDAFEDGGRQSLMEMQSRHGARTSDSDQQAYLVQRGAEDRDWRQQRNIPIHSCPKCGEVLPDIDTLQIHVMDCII

Experiment [2] has as its target WSN (H1N1) PB1 (polymerase basic protein 1 of influenza A virus A/WSN/33) (influenza A virus A/WSN/33 (H1N1)) (UniProt P03430). The experiment in a line: co-IP.
Experiment [3] has the same target. The experiment in a line: co-IP. This is another data set of the same source.
Experiment [4] addresses T1, HACD3-Myc (human (cDNA from A549 cells)). The experiment in a line: co-IP; HEK293T co-transfected with HACD3-Myc and individual V5-tagged autophagy receptors for 48 h; lysates incubated with mouse anti-Myc mAb and protein G-agarose, 4 °C, 6 h; four washes with 1% NP-40, 50 mmol/L Tris-HCl, 50 mmol/L EDTA, 150 mmol/L NaCl, pH 7.4; blot with anti-V5 and anti-Myc pAb. The source holds these as a separate data set.

Read-outs that look alike come from different tables or passages of the source. Results are given in words; binding and its absence hold for the method and conditions named. Binding seen in cells or lysates may run through a third protein. Some entries that bind do so weakly or less than the wild type. For some assays here: Where a sequence is shown, tags or fusion partners need not be part of it.

Consider “V5-tagged OPTN (from UniProt Q96CV9 1-577)”, for which, in experiment [1], the binding result is “no binding”.

For “V5-tagged SQSTM1/p62 (from UniProt Q13501 1-440)”, the binding result in experiment [2] and in experiment [1] was “binds” in each case.

B1: V5-tagged HACD3 (Hydroxyacyl-CoA Dehydratase 3) (protein, UniProt Q9P035 1-362)
chain: MENQVLTPHVYWAQRHRELYLRVELSDVQNPAISITENVLHFKAQGHGAKGDNVYEFHLEFLDLVKPEPVYKLTQRQVNITVQKKVSQWWERLTKQEKRPLFLAPDFDRWLDESDAEMELRAKEEERLNKLRLESEGSPETLTNLRKGYLFMYNLVQFLGFSWIFVNLTVRFCILGKESFYDTFHTVADMMYFCQMLAVVETINAAIGVTTSPVLPSLIQLLGRNFILFIIFGTMEEMQNKAVVFFVFYLWSAIEIFRYSFYMLTCIDMDWKVLTWLRYTLWIPLYPLGCLAEAVSVIQSIPIFNETGRFSFTLPYPVKIKVRFSFFLQIYLIMIFLGLYINFRHLYKQRRRRYGQKKKKIH
Take B1: the binding result in experiment [3] is on record as “binds”.

B2: V5-tagged NDP52 (protein, UniProt Q13137 1-446)
chain: MEETIKDPPTSAVLLDHCHFSQVIFNSVEKFYIPGGDVTCHYTFTQHFIPRRKDWIGIFRVGWKTTREYYTFMWVTLPIDLNNKSAKQQEVQFKAYYLPKDDEYYQFCYVDEDGVVRGASIPFQFRPENEEDILVVTTQGEVEEIEQHNKELCKENQELKDSCISLQKQNSDMQAELQKKQEELETLQSINKKLELKVKEQKDYWETELLQLKEQNQKMSSENEKMGIRVDQLQAQLSTQEKEMEKLVQGDQDKTEQLEQLKKENDHLFLSLTEQRKDQKKLEQTVEQMKQNETTAMKKQQELMDENFDLSKRLSENEIICNALQRQKERLEGENDLLKRENSRLLSYMGLDFNSLPYQVPTSDEGGARQNPGLAYGNPYSGIQESSSPSPLSIKKCPICKADDICDHTLEQQQMQPLCFNCPICDKIFPATEKQIFEDHVFCHSL
With B2, in experiment [4], the binding entry is listed as “binds weakly”.

(Values after paper PMC11126133.)
